Test results published in patent EP4076430B1, “A METHOD OF TREATING NONALCOHOLIC STEATOHEPATITIS” (Vector Vitale IP LLC, priority 2019, dated 2021).

Experiment: Levels of divalent metal ions in muscles, kidneys and liver, obesity model
Assay type: in vivo, rats
Conditions: DIO+zinc: high-fat diet, intragastrically every third day

Structure (SMILES): N[C@@H](CC(=O)[O-])C(=O)[O-].[Zn+2] [^64Zne, zinc aspartate]
- Copper level (Kidneys): 4.94±0.82 µg/g tissue
- Manganese level (Kidneys): 0.64±0.03 µg/g tissue
- Copper level (Liver): 3.93±0.09 µg/g tissue
- Manganese level (Liver): 1.94±0.12 µg/g tissue
- Copper level (Muscles): 0.72±0.15 µg/g tissue
